Values quoted from earlier work, collected in patent publication US20240184137A1, “CONTACT LENSES AND METHODS OF MAKING CONTACT LENSES” (University of Florida Research Foundation, Inc., priority 2021, published 2024).

Conditions: ACUVUE OASYS lenses loaded with 30% VE, prior research; cited from earlier work

SMILES: C[C@@H]1C[C@H]2[C@@H]3CCC4=CC(=O)C=C[C@]4(C)[C@@]3(F)[C@@H](O)C[C@]2(C)[C@@]1(O)C(=O)COP(=O)(O)O [DXP, dexamethasone sodium phosphate]
- Release duration: about three
